Among all 53,000 sequences or so, about 3,700 (7%) were called active.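 Rule for the calls: active = gene knockdowns whose robust z-score for IL-1 alpha signal is at least 2 or at most -2, so actives lie on both sides; inactive = the rest.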 The list shows a part of the results.

A short description of the experiment: Components of the Cytosolic LPS Sensing Pathway: Gene Identification via Genome-wide siRNA Screen.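 Note: robust z of the log signal after scaling to non-targeting control siRNA wells of the plate.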 The note with it: RAW264.7 macrophages, IL-1a HTRF, actives lie on both sides, screened at 100 nM (by protocol), cells primed 5 h with Pam3CSK4 first. In a few lines:
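RAW264.7; siRNA 100 nM final, RNAiMAX, 48h 37 degrees C; Pam3CSK4 5 h; LipidA + TransIT-TKO 24 h; IL-1a HTRF; CellTiter-Glo viability; robust z vs negative-control median.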
Background: Time-resolved FRET reads energy transfer from a long-lived donor to a nearby acceptor.
On to GGAUGGUUCUGAGGUGAAATT against Il25, for which the z-score was inactive: 1.59.

For the sequence CGUGGUUUGUCAAUGAAGGTT against Eprs, the z-score is inactive: 0.358.

GGAUGCAUAUUAAAGAAACTT against Gabrb3: the z-score was inactive: -0.659.

In the case of CCUUACCACUUGAAGAUGGTT against Ephx1, the z-score was inactive: -1.2.

Take “GCGAUUUCAUAAAGUAAACTT against 1110059G10Rik”: the z-score was inactive: -1.42.

In the case of GGAUAAGGAAGGAAUUCCUTT against Rps27a, the z-score is inactive: -0.5.

Take “CCGAAUUUCUCCUAUUGGGTT against Olfr106-ps”: the z-score was inactive: -0.241.

Consider GCGAGACUAUCAAAUCUAUTT against Gabra4, for which the z-score was inactive: 0.948.

As to GGCCAUUAAAUUUAUCAACTT against Aldh3a1, the z-score is inactive: 1.61.

Turning to CCCUCAAGAGACCCAAAUUTT against Xrcc1, the z-score was inactive: 1.37.

For the sequence GGCGGCAAGCAACAACAAUTT against Ssbp1, the z-score is inactive: 0.155.

Regarding CGGCCAACUUUCAUUGAUCTT against Ikzf4, the z-score is inactive: -0.984.

Regarding GGAAAAAGAGCUUUUGGUCTT against Piwil2, the z-score is inactive: 0.528.

Turning to CCCGGACAUCAUAAUCAGUTT against Ppcs, the z-score is inactive: 0.694.

With GCUUUGAGUACUGACACGCTT against Ccr10, the z-score was inactive: 1.37.

Regarding GCAAUUCCAAGAAAGUGUGTT against Prmt5, the z-score is inactive: -0.305.

With GGACCUUCUAUUAUUUGUATT against Tmem67, the z-score was inactive: -0.794.

In the case of CCUUUGAAAACCUACAAGUTT against Ppara, the z-score was inactive: -0.834.

In the case of GCGGCUUCAUUUCAAGCUGTT against Lnx2, the z-score is inactive: -1.34.

In the case of GCCAAUCAACUGAUGGCUUTT against Pax3, the z-score is inactive: 0.709.

For the sequence GGUCCUUAGAAUAAUUAAGTT against Me1, the z-score is inactive: -1.01.

Regarding GUCUGUCAUUUGUGGAAAUTT against Olfr1495, the z-score is active: -2.17.

GGAAACCUGUCCAGUUCUUTT against Slc38a5: the z-score is inactive: -1.2.

Consider GCUAAUGGACAGGUAAAUATT against Pcdh1, for which the z-score was inactive: 0.512.

In the case of GGUGACCAACUCUAUCAGGTT against Pglyrp1, the z-score is inactive: 0.0498.

With GCAUGCUUAAGCCUAUAAATT against Ncstn, the z-score was inactive: -1.88.

Consider GGACAACAAAGGGAGAUUCTT against Kctd12b, for which the z-score is inactive: 1.43.

Regarding GGAAAUGACCACAAUAUUUTT against Plaa, the z-score is inactive: 0.856.

As for GGCAGUUUCUUCAGUUCUUTT against Mcub, the z-score is inactive: 0.339.

As for CCACAGACUCUUAAUUAGATT against Ap3b1, the z-score is active: -2.14.

GCUUGUUCAGUUAACAAGATT against Ppp6r3: the z-score was inactive: 1.92.

For CGAUUAUCAACUCAUAUGCTT against Eif5a2, the z-score was inactive: 0.0842.

In the case of GGUGAAGAUCAUAUAAAAGTT against Crebl2, the z-score is inactive: 0.48.

On to GCUUAAGUUCCUUCUUCUCTT against Tas2r144, for which the z-score was inactive: 1.38.

As for GGCUCUUAAUACCACCUACTT against Egr1, the z-score was inactive: -1.49.

With GGAGAUGUACCACAAUGCCTT against Prss29, the z-score is inactive: -0.128.

As to CGGAUUUAAGCAGAGUGGATT against Fgl1, the z-score is inactive: -1.72.

Turning to GGUAGUAUUCAGUGAAUACTT against Cks2, the z-score is inactive: -0.192.

Consider CCUAAACAUCACUUGCUCUTT against Cd200, for which the z-score is inactive: -1.2.

For the sequence CGGAAGAAUAAAAACCGGCTT against Meaf6, the z-score is inactive: 0.601.

For GGACCUGUCUUCAUUGGAGTT against Ngb, the z-score is inactive: 0.981.

For GGAAGAUUCUAGAAAUGUGTT against Rimkla, the z-score is inactive: -0.386.

Consider GGUGUGUGAGAUAAUUGAGTT against Cops6, for which the z-score was inactive: 0.481.

Consider GGCCAAUGCACUCCUGAUCTT against Gna11, for which the z-score was inactive: -0.238.

For the sequence GGAAGCUUUUGUCGGUCCATT against Hap1, the z-score is inactive: -0.361.

On to GGAACUCAGAGCUAAACUUTT against Eri1, for which the z-score is inactive: -1.42.

On to CGGUGAGGAUUGUUGAGCUTT against Spred3, for which the z-score was inactive: 0.0843.

As for GCAUCACGUACGCCAUCAUTT against Ldlrad3, the z-score is inactive: -0.716.

Turning to GGGAAUCUCUACAGACCCUTT against Tmem108, the z-score was inactive: -0.158.

For the sequence GGAUUUGGCAACAGACUUUTT against Ryr2, the z-score is inactive: -0.391.

As to GCCUGUAGACACAAAAUUUTT against Akp3, the z-score is inactive: 0.614.

For CCCAGUUGCUAUGCUUGACTT against Defb37, the z-score is inactive: 1.68.

Take CCUAAAGUCUCUGAAUCAGTT against Fyb: the z-score was inactive: 0.45.

In the case of GGAGAUACUUCGAUACUUUTT against Baz1b, the z-score is inactive: 0.406.

GGAUUGAUAAUGAACUUCGTT against Slc13a5: the z-score is inactive: -1.38.

In the case of “GGAAGAUGAUACAAGCAAATT against A930002I21Rik”, the z-score was inactive: 0.292.

On to GGUAGAGCAAGACCUUCCUTT against P4ha3, for which the z-score was inactive: 0.514.

On to GGAGGCGUGUACCUAAAGATT against Adm2, for which the z-score is inactive: -0.302.

Turning to GCUACGAGAGGUCAUUUCCTT against Chrnb1, the z-score was inactive: 0.041.

For GCAUUAGUCAUUGUUAACGTT against Hsd17b4, the z-score was inactive: 0.653.

On to GGUCCAGAUUGCUUAGAUGTT against Zbtb11os1, for which the z-score is inactive: -0.398.

Take GGUGUAAAAAUGUGAAAGATT against Suv39h2: the z-score is inactive: 0.208.

With GCUAGAAAGGACUUCGUGGTT against Pla2g4f, the z-score was active: -2.36.

CGACUACAAUGGGCUCAAGTT against Kifc3: the z-score is active: -2.1.

On to GGACUCUGAAUCAACUUGGTT against Stx7, for which the z-score was inactive: -1.09.

Take GGUUAAGGGCAAAAUUCUGTT against Rpl21: the z-score was inactive: -0.269.

With GGAGUGAAGGCCAGCUGAATT against Son, the z-score was inactive: -0.848.

GCCUUUACCAGAAUUAUAGTT against Itgb3: the z-score was inactive: 0.57.

Source of the values: PubChem BioAssay AID1508600 (Functional Genomics Laboratory (NCATS/FGL), 2020).
